In patent publication US5206135A, “Use of the oxygenase activity of acetolactate synthase for herbicide detection” (E. I. Du Pont de Nemours and Company, priority 1990, dated 1993):
At least one structure is not confirmed: it was looked up by name or label, or the drawing left a doubt.

Molecular target: T1, acetolactate synthase (Escherichia coli, UniProt P0DP90)
T1 sequence (P0DP90 1-548): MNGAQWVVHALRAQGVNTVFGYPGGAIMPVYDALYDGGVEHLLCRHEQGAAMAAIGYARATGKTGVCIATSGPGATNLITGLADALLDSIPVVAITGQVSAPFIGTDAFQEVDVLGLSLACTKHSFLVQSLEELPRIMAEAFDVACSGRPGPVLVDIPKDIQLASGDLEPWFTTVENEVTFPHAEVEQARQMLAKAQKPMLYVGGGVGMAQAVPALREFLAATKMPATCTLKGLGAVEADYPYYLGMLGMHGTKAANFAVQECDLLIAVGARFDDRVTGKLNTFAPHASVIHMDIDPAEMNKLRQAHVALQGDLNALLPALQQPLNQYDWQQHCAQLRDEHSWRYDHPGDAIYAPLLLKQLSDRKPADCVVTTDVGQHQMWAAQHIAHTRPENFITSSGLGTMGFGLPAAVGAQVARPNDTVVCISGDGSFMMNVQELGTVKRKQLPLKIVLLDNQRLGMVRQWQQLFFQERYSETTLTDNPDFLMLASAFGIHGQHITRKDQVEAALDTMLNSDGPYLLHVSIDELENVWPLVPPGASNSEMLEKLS
T1 sequence (P0ADG1 1-87 partner): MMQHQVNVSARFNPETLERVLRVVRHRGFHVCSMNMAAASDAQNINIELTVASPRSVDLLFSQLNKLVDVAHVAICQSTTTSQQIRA
Experiment: Oxygenase activity of acetolactate synthase with different substrates (oxygen-sensitive electrode)
Assay type: biochemical
Conditions: limiting rate of oxygen consumption at saturating substrate; 0.1 M tricine-NaOH pH 8, air-equilibrated (21 % O2)
Method: To a 1 ml solution containing 0.1 M tricine-NaOH, pH 8, 10 mM MgCl2, 0.1 mM thiamine pyrophosphate, and 0.1 mM flavin adenine dinucleotide were added various concentrations of pyruvate (10 μM to 10 mM), α-keto-butyrate (10 μM to 80 mM), or acetolactate (0.15 to 5.5 mM). After allowing the solution to equilibrate with air (21 % O2), the level of dissolved oxygen was monitored by use of a commercially available oxygen-sensitive electrode (Hansatech) and polarographic electronics as described by Sweet et al. (Analytical Biochemistry 107:337 (1980)). In the absence of further additions, negligible oxygen was consumed over a 30 minute period. To initiate the consumption of oxygen, 20 μl of a 2 mg/ml stock solution of acetolactate synthase was added if pyruvate or α-acetolactate were used as substrate, or 5 μl of a 49 mg/ml stock solution of acetolactate synthase was added if α-ketobutyrate was used as substrate. The limiting rate of oxygen consumption at saturating concentrations of pyruvate, α-ketobutyrate, or α-acetolactate are illustrated in Table 1. The concentrations of α-acetolactate or α-ketobutyrate that gave half of the maximum rate (the Michaelis constant) were 1.4 mM and 32 μM, respectively.

CC(=O)C(=O)O [Pyruvate]
Maximum rate (μmoles of oxygen consumed/mg enzyme/min): 0.14 μmoles of oxygen consumed/mg e

CCC(=O)C(=O)O [α-Ketobutyrate]
Maximum rate (μmoles of oxygen consumed/mg enzyme/min): 0.022 μmoles of oxygen consumed/mg e
